Assay results from the supplement of paper PMC10849652.
The list shows a part of the results.

Amino acid sequences for entries named in this document (tags omitted). A change or cut given only in a name is not applied to a line headed by its entry.
UniProt P34059: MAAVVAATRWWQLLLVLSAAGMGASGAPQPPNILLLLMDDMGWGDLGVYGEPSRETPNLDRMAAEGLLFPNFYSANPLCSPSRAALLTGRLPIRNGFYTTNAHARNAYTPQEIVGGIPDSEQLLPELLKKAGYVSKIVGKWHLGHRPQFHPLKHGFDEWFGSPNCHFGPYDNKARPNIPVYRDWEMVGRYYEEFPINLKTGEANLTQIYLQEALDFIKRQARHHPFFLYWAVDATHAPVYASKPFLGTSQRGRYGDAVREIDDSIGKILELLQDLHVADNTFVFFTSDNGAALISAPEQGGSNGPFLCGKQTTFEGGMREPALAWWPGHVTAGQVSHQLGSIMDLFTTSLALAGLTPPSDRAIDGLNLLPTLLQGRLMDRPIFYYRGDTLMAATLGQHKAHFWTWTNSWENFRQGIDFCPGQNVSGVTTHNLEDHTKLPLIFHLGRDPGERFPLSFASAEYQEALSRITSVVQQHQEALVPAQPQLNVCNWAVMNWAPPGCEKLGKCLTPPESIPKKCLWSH
UniProt Q01415: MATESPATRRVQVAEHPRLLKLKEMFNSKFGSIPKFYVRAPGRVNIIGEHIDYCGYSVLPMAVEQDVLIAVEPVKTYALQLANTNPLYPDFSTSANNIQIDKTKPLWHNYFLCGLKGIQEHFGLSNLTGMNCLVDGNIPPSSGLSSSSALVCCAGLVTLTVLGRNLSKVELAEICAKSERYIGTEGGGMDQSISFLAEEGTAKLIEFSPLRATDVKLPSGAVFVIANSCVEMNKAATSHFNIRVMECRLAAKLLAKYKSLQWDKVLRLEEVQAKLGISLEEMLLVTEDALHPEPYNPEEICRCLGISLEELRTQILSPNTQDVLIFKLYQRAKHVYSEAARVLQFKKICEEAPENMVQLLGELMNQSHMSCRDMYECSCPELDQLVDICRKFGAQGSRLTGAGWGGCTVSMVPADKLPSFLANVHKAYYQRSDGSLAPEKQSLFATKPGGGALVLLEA
UniProt Q14376: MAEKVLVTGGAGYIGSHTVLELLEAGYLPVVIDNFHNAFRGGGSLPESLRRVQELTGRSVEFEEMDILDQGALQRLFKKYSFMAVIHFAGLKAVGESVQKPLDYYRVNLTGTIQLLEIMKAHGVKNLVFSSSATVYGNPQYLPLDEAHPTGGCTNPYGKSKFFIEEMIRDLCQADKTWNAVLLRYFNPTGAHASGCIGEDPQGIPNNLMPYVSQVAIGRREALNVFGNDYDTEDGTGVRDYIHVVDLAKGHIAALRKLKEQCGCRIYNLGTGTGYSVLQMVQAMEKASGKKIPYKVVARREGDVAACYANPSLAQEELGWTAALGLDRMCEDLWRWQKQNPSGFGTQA
UniProt Q13283, whole entry, looked up: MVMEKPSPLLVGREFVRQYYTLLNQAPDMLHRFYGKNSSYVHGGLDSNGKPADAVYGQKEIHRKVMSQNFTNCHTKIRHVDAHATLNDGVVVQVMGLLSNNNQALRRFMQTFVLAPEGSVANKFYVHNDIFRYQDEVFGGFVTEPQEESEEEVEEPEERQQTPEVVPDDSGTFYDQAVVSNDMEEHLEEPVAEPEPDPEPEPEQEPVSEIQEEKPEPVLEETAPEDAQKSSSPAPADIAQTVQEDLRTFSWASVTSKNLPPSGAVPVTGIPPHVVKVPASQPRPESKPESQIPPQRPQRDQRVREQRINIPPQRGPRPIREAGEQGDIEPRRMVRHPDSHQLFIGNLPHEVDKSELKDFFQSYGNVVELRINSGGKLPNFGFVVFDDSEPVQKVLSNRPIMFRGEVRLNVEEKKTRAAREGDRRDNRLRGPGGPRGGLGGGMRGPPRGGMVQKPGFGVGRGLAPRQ
UniProt P50395: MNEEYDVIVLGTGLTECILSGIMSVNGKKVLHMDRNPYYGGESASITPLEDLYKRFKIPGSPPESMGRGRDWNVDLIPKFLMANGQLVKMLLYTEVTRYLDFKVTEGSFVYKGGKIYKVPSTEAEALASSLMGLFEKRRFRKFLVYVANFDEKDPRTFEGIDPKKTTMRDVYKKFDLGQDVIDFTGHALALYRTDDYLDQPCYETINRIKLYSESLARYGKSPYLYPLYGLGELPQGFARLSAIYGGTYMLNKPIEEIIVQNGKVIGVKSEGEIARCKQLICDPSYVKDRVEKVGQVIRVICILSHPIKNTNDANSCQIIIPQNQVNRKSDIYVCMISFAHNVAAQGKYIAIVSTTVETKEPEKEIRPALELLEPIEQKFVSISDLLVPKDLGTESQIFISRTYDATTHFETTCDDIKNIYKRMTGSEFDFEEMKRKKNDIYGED
UniProt Q13069: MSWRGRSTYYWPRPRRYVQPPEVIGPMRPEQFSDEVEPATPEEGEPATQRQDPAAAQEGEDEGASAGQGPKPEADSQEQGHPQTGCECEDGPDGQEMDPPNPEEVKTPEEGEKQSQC
UniProt Q9H0R8, whole entry, looked up: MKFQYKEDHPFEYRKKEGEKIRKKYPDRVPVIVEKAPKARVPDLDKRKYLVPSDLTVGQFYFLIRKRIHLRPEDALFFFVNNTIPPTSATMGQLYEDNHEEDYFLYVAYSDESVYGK
UniProt P30047: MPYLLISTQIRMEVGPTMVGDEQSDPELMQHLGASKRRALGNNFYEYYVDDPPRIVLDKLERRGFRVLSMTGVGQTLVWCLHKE
UniProt P22102: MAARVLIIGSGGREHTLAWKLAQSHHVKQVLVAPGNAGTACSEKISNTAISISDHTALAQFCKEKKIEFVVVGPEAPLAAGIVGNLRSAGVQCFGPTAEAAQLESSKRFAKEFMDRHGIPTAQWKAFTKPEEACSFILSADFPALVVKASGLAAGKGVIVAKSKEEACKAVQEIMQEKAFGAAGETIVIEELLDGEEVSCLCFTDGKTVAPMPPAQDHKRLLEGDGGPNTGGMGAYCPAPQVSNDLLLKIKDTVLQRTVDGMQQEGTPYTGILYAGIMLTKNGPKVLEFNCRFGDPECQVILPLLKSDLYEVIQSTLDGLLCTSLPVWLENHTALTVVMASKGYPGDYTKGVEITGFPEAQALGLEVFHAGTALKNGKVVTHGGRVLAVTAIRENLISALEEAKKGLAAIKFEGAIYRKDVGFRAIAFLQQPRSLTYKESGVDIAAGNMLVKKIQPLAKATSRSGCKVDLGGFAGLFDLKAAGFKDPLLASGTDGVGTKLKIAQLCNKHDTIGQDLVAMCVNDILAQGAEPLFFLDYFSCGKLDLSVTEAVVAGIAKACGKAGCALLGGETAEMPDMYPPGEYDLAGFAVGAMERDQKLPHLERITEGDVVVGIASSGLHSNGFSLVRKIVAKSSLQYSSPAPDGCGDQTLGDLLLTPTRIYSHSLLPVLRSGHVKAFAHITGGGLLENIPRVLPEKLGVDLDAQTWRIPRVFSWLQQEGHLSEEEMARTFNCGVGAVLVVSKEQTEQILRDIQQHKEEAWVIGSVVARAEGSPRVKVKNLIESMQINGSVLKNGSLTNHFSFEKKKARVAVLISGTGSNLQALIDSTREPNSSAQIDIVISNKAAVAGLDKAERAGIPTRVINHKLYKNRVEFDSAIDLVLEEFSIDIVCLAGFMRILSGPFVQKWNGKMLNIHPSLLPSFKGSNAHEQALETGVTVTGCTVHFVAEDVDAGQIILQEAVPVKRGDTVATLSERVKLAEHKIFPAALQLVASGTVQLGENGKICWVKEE
UniProt P02794, whole entry, looked up: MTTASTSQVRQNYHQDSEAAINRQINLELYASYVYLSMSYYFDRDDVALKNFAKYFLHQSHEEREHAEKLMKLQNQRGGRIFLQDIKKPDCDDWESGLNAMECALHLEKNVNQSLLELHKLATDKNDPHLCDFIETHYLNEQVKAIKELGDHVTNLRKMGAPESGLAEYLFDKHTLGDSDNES
UniProt Q06210: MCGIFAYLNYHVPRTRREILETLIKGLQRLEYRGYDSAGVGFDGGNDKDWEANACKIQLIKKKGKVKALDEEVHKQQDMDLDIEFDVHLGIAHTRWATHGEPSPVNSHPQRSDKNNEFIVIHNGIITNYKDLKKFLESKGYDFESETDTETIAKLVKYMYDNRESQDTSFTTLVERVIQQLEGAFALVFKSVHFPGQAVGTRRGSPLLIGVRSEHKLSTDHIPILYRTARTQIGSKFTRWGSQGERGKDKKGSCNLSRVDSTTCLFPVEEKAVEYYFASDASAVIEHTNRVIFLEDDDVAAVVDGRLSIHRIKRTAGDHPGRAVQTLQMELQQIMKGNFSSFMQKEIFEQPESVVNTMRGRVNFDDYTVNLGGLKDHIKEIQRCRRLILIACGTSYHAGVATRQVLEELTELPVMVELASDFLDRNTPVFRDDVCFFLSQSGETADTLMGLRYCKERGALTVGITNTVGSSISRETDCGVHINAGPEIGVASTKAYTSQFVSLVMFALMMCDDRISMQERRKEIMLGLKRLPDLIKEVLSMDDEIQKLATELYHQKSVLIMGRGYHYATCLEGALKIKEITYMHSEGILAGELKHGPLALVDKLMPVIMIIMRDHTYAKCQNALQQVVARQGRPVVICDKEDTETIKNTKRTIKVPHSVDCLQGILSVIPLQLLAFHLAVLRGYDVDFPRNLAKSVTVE
UniProt P15976: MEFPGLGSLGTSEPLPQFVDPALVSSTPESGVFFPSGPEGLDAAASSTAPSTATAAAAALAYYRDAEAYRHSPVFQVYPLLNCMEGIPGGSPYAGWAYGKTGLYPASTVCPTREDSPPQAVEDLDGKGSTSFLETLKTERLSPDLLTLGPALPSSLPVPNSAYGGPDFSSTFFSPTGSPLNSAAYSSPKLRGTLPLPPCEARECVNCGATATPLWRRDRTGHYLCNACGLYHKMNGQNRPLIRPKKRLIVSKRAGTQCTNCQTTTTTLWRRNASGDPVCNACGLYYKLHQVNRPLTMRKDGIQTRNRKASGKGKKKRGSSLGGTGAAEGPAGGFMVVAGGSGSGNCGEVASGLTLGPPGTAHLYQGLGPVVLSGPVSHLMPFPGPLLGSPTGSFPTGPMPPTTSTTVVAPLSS
UniProt Q8WXD5: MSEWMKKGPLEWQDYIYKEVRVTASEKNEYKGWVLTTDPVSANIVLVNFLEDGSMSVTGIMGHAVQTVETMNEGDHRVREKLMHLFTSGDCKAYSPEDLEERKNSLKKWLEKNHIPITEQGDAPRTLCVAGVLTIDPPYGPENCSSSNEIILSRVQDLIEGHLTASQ
UniProt Q8TEQ6: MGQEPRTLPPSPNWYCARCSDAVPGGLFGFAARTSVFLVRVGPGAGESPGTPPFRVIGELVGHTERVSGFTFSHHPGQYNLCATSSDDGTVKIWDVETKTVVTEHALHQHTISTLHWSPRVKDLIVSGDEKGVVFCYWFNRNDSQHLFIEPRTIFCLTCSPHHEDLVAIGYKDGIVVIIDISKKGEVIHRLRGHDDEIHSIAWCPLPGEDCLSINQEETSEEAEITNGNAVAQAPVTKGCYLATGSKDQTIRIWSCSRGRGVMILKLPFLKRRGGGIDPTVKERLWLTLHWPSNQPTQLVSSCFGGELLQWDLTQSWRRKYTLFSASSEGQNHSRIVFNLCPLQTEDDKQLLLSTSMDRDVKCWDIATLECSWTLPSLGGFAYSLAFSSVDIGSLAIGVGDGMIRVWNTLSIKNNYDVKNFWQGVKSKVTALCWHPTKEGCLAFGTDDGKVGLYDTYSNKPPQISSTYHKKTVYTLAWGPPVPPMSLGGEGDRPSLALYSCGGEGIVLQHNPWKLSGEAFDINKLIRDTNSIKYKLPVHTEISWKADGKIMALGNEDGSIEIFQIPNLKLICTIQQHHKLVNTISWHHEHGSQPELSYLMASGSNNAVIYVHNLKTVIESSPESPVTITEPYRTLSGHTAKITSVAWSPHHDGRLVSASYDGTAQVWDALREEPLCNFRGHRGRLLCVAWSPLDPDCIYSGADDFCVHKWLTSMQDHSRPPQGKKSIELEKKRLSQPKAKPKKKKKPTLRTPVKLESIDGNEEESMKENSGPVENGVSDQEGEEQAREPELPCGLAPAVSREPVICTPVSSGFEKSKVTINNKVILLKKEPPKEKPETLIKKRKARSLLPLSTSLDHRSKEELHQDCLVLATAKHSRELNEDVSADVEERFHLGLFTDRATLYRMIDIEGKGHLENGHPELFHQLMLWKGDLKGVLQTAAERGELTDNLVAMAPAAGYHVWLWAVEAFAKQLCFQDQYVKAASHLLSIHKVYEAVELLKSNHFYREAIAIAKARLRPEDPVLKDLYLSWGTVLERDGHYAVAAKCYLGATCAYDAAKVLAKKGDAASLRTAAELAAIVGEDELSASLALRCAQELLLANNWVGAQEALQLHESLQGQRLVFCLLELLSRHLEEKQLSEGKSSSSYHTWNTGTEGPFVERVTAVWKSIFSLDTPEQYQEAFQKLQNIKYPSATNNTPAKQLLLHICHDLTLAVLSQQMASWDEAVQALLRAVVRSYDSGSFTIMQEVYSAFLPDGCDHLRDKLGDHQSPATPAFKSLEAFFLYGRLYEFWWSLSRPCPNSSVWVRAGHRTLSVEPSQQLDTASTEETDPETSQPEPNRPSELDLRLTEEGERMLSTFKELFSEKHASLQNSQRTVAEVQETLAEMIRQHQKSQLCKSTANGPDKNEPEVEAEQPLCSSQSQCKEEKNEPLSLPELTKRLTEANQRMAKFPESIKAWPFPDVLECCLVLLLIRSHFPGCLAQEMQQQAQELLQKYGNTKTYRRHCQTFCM

Legend:
Experiment in all cases: log2 fold change, soluble protein after heating vs DMSO (PISA); higher = thermal stabilisation; K562 cells, 10 uM, 30 min; active = over 0.2 and 3.5 SD of the protein, either way, in both replicates (recomputed)
[1] = compound: NC(=O)Nc1cc(-c2cccc(F)c2)sc1C(=O)N[C@H]1CCCNC1
Method in brief: (§1)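 Soluble protein was quantified by TMTpro 16plex LC-MS/MS after channel sums were equalised. It was obtained as the supernatant after 21,000xg for 90 min from pooled aliquots of K562 cells (2×10^6 cells/mL, 10 μM compound, 30 min) heated for 3 min across 48°C-58°C and extracted in PBS with 0.5% NP-40 at 4°C. Thermal stability values are relative to control samples and come from duplicates. They are given as log2 fold changes.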

[2] = compound: NC(=O)c1cnc(N[C@@H]2CCCC[C@@H]2N)nc1Nc1cccc(-n2nccn2)c1
Method in brief: as §1

[3] = compound: NC1(c2ccc(-c3nc4ccn5c(=O)[nH]nc5c4cc3-c3ccccc3)cc2)CCC1
Method in brief: as §1

[4] = compound: NCC(=O)Nc1ccc(-n2nc(C(F)(F)F)cc2-c2ccc3c(ccc4ccccc43)c2)cc1
Method in brief: as §1

[5] = compound: Nc1ccccc1NC(=O)c1ccc(CNC(=O)OCc2cccnc2)cc1 [entinostat]
Method in brief: as §1

[6] = compound: O=C(CCCCCCC(=O)Nc1ccccc1)NO [vorinostat]
Method in brief: as §1

[7] = compound: O=C(CCCCCCNC(=O)c1cnc(N(c2ccccc2)c2ccccc2Cl)nc1)NO [citarinostat]
Method in brief: as §1

[8] = compound: O=C(O)c1ccc2c(c1)nc(Nc1cccc(Cl)c1)c1ccncc12 [silmitasertib]
Method in brief: as §1

[9] = compound: O=C1NC(=O)C(c2cnc3ccccn23)=C1c1cn2c3c(cc(F)cc13)CN(C(=O)N1CCCCC1)CC2
Method in brief: as §1

[10] = compound: c1cc(OCCN2CCCCC2)cc(-c2n[nH]c3ccc(-c4nnc[nH]4)cc23)c1
Method in brief: as §1

Measured: log2 fold change

FUS (UniProt P35637)
inactive: [1] 0.012 | [2] 0.086 | [3] 0.199 | [4] 0.075 | [5] -0.093 | [6] 0.012 | [7] -0.094 | [8] 0.06 | [9] 0.148 | [10] -0.091

FUCA1 (UniProt P04066)
inactive: [1] 0.028 | [2] -0.028 | [4] -0.03 | [5] 0.014 | [6] 0.015 | [7] 0.096 | [8] 0.019 | [9] -0.043
active: [3] -0.519 | [10] -0.372

GALNS (UniProt P34059)
inactive: [1] 0.17 | [2] -0.008 | [3] 0.08 | [4] 0.03 | [5] 0.051 | [6] 0.006 | [7] -0.132 | [8] -0.018 | [9] -0.033 | [10] -0.016

GALK2 (UniProt Q01415)
inactive: [1] -0.038 | [2] -0.022 | [3] -0.028 | [4] -0.034 | [5] 0.003 | [6] -0.043 | [7] 0.019 | [8] 0.005 | [9] -0.065 | [10] -0.055

GALNT4 (UniProt Q8N4A0)
inactive: [1] -0.013 | [2] -0.117 | [3] -0.072 | [5] -0.064 | [6] 0.055 | [7] 0.009 | [8] 0.003 | [9] 0.051 | [10] -0.064
active: [4] -1.32

GGPS1 (UniProt O95749)
inactive: [1] -0.02 | [2] -0.024 | [3] -0.003 | [4] -0.033 | [5] -0.034 | [6] -0.071 | [7] -0.016 | [8] 0.013 | [9] -0.043 | [10] -0.028

GDAP1 (UniProt Q8TB36)
inactive: [1] -0.004 | [2] -0.13 | [3] 0.01 | [4] 0.002 | [5] 0.008 | [6] -0.027 | [7] 0.031 | [8] -0.037 | [9] -0.109 | [10] 0.008

GBA (UniProt P04062)
inactive: [1] 0.061 | [2] -0.043 | [3] -0.105 | [4] 0.064 | [5] -0.016 | [6] -0.028 | [7] 0.115 | [8] 0.026 | [9] -0.034 | [10] 0.308

GALE (UniProt Q14376)
inactive: [1] -0.058 | [2] -0.065 | [3] -0.075 | [4] -0.064 | [5] -0.026 | [6] 0 | [7] 0.056 | [8] -0.069 | [9] -0.148 | [10] 0.018

GCLC (UniProt P48506)
inactive: [1] -0.013 | [2] 0.005 | [3] -0.152 | [4] -0.061 | [5] 0.02 | [6] 0.064 | [7] 0.035 | [8] -0.024 | [9] -0.041 | [10] -0.025

G3BP1 (UniProt Q13283)
inactive: [1] -0.02 | [2] 0.028 | [3] 0.253 | [4] 0.017 | [5] -0.011 | [6] 0.02 | [7] -0.069 | [8] 0.142 | [9] 0.121 | [10] -0.169

GDI2 (UniProt P50395)
inactive: [1] -0.026 | [2] -0.036 | [3] -0.003 | [4] -0.02 | [5] -0.007 | [6] 0.01 | [7] -0.029 | [8] -0.023 | [9] -0.051 | [10] -0.004

GAGE5 (UniProt Q13069)
inactive: [1] -0.057 | [2] 0.015 | [3] 0.073 | [4] -0.023 | [5] 0.006 | [6] -0.082 | [7] 0.005 | [8] -0.04 | [9] -0.086 | [10] -0.063

FRY (UniProt Q5TBA9)
inactive: [1] -0.061 | [2] 0.072 | [3] -0.189 | [4] 0.1 | [5] 0.072 | [6] -0.175 | [7] -0.232 | [8] 0.079 | [9] 0.074 | [10] -0.244

FYB1 isoform 3 (UniProt O15117)
inactive: [1] -0.045 | [2] 0.007 | [3] 0.017 | [4] 0.02 | [5] 0.025 | [6] -0.02 | [7] 0.093 | [8] -0.097 | [9] -0.037 | [10] -0.002

GABARAPL1 isoform 2 (UniProt Q9H0R8)
inactive: [1] -0.051 | [2] -0.13 | [4] -0.134 | [5] -0.009 | [6] -0.028 | [7] 0.038 | [8] -0.083 | [9] -0.049 | [10] 0.021
active: [3] -0.252

GCHFR (UniProt P30047)
inactive: [1] 0.107 | [2] -0.265 | [3] -0.007 | [4] -0.029 | [5] 0.014 | [6] -0.086 | [7] 0.156 | [8] -0.03 | [9] -0.023 | [10] 0.016

GART (UniProt P22102)
inactive: [1] -0.062 | [2] -0.119 | [3] -0.116 | [4] -0.067 | [5] 0.032 | [6] 0.033 | [7] 0.026 | [8] -0.005 | [9] -0.034 | [10] -0.028

FURIN (UniProt P09958)
inactive: [1] 0.039 | [2] -0.02 | [3] -0.103 | [4] 0.14 | [5] -0.026 | [6] 0.001 | [7] 0.104 | [8] -0.018 | [9] -0.074 | [10] -0.036

FTH1 (UniProt P02794)
inactive: [1] -0.009 | [2] -0.032 | [3] -0.031 | [4] 0.063 | [5] 0.039 | [6] 0.011 | [7] 0.066 | [8] 0.049 | [9] 0 | [10] -0.036

GAA (UniProt P10253)
inactive: [1] 0.216 | [2] -0.234 | [3] 0.13 | [4] -0.076 | [5] 0.116 | [6] 0.017 | [7] -0.06 | [8] 0.104 | [9] -0.048 | [10] -0.072

GFPT1 (UniProt Q06210)
inactive: [1] -0.048 | [2] 0.007 | [3] -0.059 | [4] -0.018 | [5] 0.009 | [6] -0.002 | [7] 0.055 | [8] -0.054 | [9] -0.077 | [10] -0.009

Random excerpt: two entries already listed, in no set order.
GART (UniProt P22102)
inactive: [1] -0.062 | [2] -0.119 | [3] -0.116 | [4] -0.067 | [5] 0.032 | [6] 0.033 | [7] 0.026 | [8] -0.005 | [9] -0.034 | [10] -0.028

GAGE5 (UniProt Q13069)
inactive: [1] -0.057 | [2] 0.015 | [3] 0.073 | [4] -0.023 | [5] 0.006 | [6] -0.082 | [7] 0.005 | [8] -0.04 | [9] -0.086 | [10] -0.063

Further entries.

GATA1 (UniProt P15976)
inactive: [1] 0.009 | [2] 0.012 | [3] -0.018 | [4] 0.059 | [5] -0.084 | [6] -0.164 | [7] -0.166 | [8] 0.065 | [9] -0.039 | [10] -0.096

GGT2 isoform 3 (UniProt P36268)
inactive: [1] 0 | [2] -0.039 | [3] 0.112 | [4] 0.003 | [5] -0.037 | [6] 0.004 | [7] -0.058 | [8] -0.007 | [9] -0.079 | [10] -0.056

GEMIN6 (UniProt Q8WXD5)
inactive: [1] 0.066 | [2] 0.015 | [3] -0.108 | [4] 0.099 | [5] -0.005 | [6] -0.04 | [7] -0.12 | [8] 0.015 | [9] -0.139 | [10] -0.106

GEMIN5 (UniProt Q8TEQ6)
inactive: [1] -0.011 | [2] -0.018 | [3] -0.133 | [4] -0.015 | [5] 0.029 | [6] -0.046 | [7] -0.065 | [8] 0.009 | [9] -0.057 | [10] -0.034

FPGT (UniProt O14772)
inactive: [1] 0.018 | [2] -0.018 | [3] -0.088 | [4] -0.068 | [5] -0.029 | [6] 0.032 | [7] 0.03 | [8] -0.019 | [9] -0.081 | [10] -0.051
